Measurements from the supplement of paper PMC10849652.
The other results are listed elsewhere or left out. Residues, ends and D or L forms follow the SMILES beside them. *: point of attachment. Cbz = O=C(OCc1ccccc1)*

Protein sequences, listed by entry. Tags and fused reporters are not part of them. Lines headed by an entry give the natural chain unless they say otherwise; changes in a name come on top.
UniProt P13796: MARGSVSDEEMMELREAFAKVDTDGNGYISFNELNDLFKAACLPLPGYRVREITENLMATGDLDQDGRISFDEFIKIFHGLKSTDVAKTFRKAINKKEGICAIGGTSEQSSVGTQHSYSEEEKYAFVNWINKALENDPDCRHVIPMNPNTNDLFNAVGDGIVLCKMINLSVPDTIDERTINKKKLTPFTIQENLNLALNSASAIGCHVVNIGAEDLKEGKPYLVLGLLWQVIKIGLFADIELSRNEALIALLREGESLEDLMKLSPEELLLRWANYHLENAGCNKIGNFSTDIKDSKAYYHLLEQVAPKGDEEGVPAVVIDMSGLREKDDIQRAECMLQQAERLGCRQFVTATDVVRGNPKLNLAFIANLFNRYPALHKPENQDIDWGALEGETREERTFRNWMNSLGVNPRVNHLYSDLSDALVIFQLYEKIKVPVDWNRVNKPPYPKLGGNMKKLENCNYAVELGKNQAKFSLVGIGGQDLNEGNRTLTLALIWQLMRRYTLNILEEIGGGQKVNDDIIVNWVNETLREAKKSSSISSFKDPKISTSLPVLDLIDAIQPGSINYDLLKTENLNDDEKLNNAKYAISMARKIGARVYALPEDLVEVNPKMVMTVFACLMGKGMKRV
UniProt Q9UGP4: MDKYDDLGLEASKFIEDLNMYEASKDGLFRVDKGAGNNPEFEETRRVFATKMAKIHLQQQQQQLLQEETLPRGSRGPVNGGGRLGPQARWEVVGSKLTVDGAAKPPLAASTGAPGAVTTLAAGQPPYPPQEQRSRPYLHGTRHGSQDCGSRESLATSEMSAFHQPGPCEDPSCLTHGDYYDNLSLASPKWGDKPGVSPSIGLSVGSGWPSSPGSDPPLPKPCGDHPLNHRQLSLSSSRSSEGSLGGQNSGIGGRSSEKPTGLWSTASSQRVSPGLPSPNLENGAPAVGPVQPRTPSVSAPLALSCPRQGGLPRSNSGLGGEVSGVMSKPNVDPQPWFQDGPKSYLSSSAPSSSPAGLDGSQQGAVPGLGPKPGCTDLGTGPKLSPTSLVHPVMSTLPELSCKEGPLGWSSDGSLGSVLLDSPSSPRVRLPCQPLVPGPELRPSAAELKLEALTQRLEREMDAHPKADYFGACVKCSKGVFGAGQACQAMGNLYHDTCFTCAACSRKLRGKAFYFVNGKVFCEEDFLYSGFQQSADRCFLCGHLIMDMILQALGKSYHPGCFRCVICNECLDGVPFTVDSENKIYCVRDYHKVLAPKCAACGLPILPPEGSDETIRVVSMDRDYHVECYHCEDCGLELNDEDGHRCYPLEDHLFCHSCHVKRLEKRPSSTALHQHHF
UniProt Q6P1A2: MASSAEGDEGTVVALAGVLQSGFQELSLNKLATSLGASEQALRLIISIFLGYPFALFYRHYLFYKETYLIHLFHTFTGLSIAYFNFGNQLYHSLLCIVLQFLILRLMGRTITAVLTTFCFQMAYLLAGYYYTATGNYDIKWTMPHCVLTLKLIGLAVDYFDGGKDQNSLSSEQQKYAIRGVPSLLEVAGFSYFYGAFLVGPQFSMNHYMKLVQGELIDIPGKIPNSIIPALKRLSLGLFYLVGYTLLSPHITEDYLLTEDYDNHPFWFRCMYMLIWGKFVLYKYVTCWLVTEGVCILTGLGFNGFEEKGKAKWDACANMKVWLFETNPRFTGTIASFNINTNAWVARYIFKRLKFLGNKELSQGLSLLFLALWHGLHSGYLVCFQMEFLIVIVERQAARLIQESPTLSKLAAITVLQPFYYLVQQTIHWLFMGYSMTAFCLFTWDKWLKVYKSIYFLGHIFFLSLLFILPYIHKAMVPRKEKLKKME
UniProt Q92604: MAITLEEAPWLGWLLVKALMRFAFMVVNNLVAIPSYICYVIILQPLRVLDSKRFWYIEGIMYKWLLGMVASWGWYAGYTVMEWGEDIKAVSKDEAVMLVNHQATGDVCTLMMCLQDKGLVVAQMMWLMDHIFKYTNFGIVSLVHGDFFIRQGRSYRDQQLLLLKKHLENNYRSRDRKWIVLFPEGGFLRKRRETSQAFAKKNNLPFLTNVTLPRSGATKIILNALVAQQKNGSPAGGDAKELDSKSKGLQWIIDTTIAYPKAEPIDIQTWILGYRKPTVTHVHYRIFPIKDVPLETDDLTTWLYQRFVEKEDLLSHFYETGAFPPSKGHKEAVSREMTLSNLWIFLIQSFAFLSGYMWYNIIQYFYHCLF
UniProt Q15345: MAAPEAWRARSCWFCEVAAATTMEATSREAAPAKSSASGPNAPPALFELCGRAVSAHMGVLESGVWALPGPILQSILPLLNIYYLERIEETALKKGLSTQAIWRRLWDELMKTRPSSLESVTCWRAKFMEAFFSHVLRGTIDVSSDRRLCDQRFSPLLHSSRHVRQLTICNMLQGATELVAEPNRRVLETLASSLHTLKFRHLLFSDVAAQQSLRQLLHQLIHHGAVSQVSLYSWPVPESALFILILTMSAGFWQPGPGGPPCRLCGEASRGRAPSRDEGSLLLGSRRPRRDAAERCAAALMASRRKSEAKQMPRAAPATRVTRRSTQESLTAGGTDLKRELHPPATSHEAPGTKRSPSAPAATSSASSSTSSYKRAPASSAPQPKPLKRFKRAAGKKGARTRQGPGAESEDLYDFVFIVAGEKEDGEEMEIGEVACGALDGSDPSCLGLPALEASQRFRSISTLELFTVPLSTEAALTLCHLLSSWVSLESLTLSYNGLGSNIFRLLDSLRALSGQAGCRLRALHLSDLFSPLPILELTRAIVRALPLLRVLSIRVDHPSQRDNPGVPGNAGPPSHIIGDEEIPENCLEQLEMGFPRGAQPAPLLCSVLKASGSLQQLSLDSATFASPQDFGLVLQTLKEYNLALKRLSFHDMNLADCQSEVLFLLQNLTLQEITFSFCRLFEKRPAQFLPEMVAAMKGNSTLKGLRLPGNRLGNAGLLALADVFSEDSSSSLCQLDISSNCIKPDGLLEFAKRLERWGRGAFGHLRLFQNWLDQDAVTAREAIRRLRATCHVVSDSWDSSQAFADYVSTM
UniProt Q9BT23: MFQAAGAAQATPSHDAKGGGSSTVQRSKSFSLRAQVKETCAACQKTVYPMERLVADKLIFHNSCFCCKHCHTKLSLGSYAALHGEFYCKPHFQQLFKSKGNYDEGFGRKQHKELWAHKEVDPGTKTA
UniProt Q13094: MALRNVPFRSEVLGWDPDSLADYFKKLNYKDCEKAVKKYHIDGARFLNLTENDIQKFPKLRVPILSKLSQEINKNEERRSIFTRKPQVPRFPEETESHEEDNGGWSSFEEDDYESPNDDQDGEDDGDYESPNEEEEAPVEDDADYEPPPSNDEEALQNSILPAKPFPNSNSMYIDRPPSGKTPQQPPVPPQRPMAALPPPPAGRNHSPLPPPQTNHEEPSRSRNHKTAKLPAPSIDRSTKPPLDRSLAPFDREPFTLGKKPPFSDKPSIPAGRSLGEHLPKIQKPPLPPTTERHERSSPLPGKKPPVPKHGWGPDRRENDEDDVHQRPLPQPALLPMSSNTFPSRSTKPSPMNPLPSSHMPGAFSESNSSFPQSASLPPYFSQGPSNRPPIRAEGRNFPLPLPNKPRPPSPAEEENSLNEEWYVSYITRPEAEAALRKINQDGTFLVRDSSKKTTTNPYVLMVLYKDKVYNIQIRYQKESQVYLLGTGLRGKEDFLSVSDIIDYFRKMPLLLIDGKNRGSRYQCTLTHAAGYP

What was measured:
Assay in all cases: log2 fold change, soluble protein after heating vs DMSO (PISA); higher = thermal stabilisation; K562 cells, 10 uM, 30 min; active = over 0.2 and 3.5 SD of the protein, either way, in both replicates (recomputed)
erlotinib = compound: C#Cc1cccc(Nc2ncnc3cc(OCCOC)c(OCCOC)cc23)c1 [erlotinib]
Summary of the method: (§1)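 Soluble protein was quantified by TMTpro 16plex LC-MS/MS after channel sums were equalised. It was obtained as the supernatant after 21,000xg for 90 min from pooled aliquots of K562 cells (2×10^6 cells/mL, 10 μM compound, 30 min) heated for 3 min across 48°C-58°C and extracted in PBS with 0.5% NP-40 at 4°C. Thermal stability values are relative to control samples and come from duplicates. They are given as log2 fold changes.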

[1] = compound: C/C(=N\NC(=O)C1=CC(=CC=C1)S(=O)(=O)N2CCOCC2)/C3=C(C=CC(=C3)Cl)O
Summary of the method: as §1

[2] = compound: C1=CC(=C(C=C1Cl)C2=NC3=NC=CN=C3C(=N2)NC4=CC=NC=C4)F
Summary of the method: as §1

[3] = compound: C1=CC(=CC=C1C2=NC3=C(N2)C=C(C=C3)C(=O)N)OC4=CC=C(C=C4)Cl
Summary of the method: as §1

[4] = compound: C1=CC2=C(C=CC(=C2)/C=C\3/C(=O)NC(=NCC4=CC=CS4)S3)N=C1
Summary of the method: as §1

[5] = compound: C1=CC2=NC=CN=C2C=C1/C=C/3\C(=O)NC(=O)S3
Summary of the method: as §1

[6] = compound: C1=CC=C(C=C1)C2=NC(=C(N2)C3=CC=NC=C3)C4=CC(=C(C=C4)Cl)O
Summary of the method: as §1

[7] = compound: C1=CC=C2C(=C1)C3=NNC4=CC=CC(=C43)C2=O
Summary of the method: as §1

[8] = compound: C1CCN(C1)C(=O)NC2=CC=CC(=C2)NC3=NC=C(C(=N3)NCCC4=CN=CN4)Br
Summary of the method: as §1

[9] = compound: C1CN(CCC1(CC2=CC=C(C=C2)Cl)N)C3=NC=NC4=C3C=CN4
Summary of the method: as §1

IRAK-1-4 Inhibitor I = compound: C1COCCN1CCN2C3=CC=CC=C3N=C2NC(=O)C4=CC(=CC=C4)[N+](=O)[O-] [IRAK-1-4 Inhibitor I]
Summary of the method: as §1

ibrutinib = compound: C=CC(=O)N1CCC[C@@H](n2nc(-c3ccc(Oc4ccccc4)cc3)c3c(N)ncnc32)C1 [ibrutinib]
Summary of the method: as §1

[10] = compound: CC(=O)c1cnc2ccc(-c3cc(Cl)c(O)c(Cl)c3)nc2c1N[C@H]1CC[C@H](CN(C)C)CC1
Summary of the method: as §1

ralimetinib = compound: CC(C)(C)Cn1c(N)nc2ccc(-c3[nH]c(C(C)(C)C)nc3-c3ccc(F)cc3)nc21 [ralimetinib]
Summary of the method: as §1

[11] = compound: CC(C)(O)CC(=O)NCCn1ccc2ncnc(Nc3ccc(Oc4cccc(C(F)(F)F)c4)c(Cl)c3)c21
Summary of the method: as §1

[12] = compound: CC(C)C1=C2N=C(C=C(N2N=C1)NCC3=CC=CC=C3)NCCCCCCN
Summary of the method: as §1

[13] = compound: CC(C)C[C@@H](C=O)NC(=O)[C@H](CC(C)C)NC(=O)[C@H](CC(C)C)NC(=O)OCc1ccccc1
Summary of the method: as §1

pinometostat = compound: CC(C)N(C[C@H]1O[C@@H](n2cnc3c(N)ncnc32)[C@H](O)[C@@H]1O)[C@H]1C[C@@H](CCc2nc3cc(C(C)(C)C)ccc3[nH]2)C1 [pinometostat]
Summary of the method: as §1

[14] = compound: CC1=C(C(CC(=O)N1)C2=CC=C(C=C2)C(F)(F)F)C(=O)NC3=C(C=C4C(=C3)C=NN4)F
Summary of the method: as §1

[15] = compound: CC1=C(C2=C(C=C1)C(=O)C3=CC=CC=C3N2CCCN)C
Summary of the method: as §1

Target	log2 fold change (erlotinib)	log2 fold change [1]	log2 fold change [2]	log2 fold change [3]	log2 fold change [4]	log2 fold change [5]	log2 fold change [6]	log2 fold change [7]	log2 fold change [8]	log2 fold change [9]	log2 fold change (IRAK-1-4 Inhibitor I)	log2 fold change (ibrutinib)	log2 fold change [10]	log2 fold change (ralimetinib)	log2 fold change [11]	log2 fold change [12]	log2 fold change [13]	log2 fold change (pinometostat)	log2 fold change [14]	log2 fold change [15]
LCP1 (UniProt P13796)	inactive: 0.07	inactive: -0.055	inactive: 0.018	inactive: -0.021	inactive: -0.038	inactive: -0.001	inactive: -0.036	inactive: 0.019	inactive: 0.017	inactive: 0.034	inactive: 0.041	inactive: 0.008	inactive: 0.014	inactive: -0.031	inactive: 0.042	inactive: 0.106	inactive: 0.013	inactive: -0.031	inactive: 0.033	inactive: -0.049
LIMD1 (UniProt Q9UGP4)	inactive: 0.017	inactive: 0.058	inactive: 0.062	inactive: -0.019	inactive: -0.01	inactive: 0.077	inactive: 0.013	inactive: 0.006	inactive: -0.045	inactive: 0.042	inactive: 0.03	inactive: 0.033	inactive: -0.008	inactive: 0.035	inactive: -0.035	inactive: 0.044	inactive: -0.072	inactive: 0.016		inactive: -0.032
LPCAT3 (UniProt Q6P1A2)	inactive: -0.062	inactive: 0.028	inactive: 0.032	inactive: 0.07	inactive: 0.152	inactive: 0.071	inactive: 0.211	inactive: 0.014	inactive: 0.059	inactive: 0.002	inactive: 0.014	inactive: -0.034	inactive: 0.099	inactive: 0.009	inactive: 0.148	active: -0.65	inactive: -0.004	inactive: 0.083		inactive: 0.03
LPGAT1 (UniProt Q92604)	inactive: -0.005	inactive: 0.022	inactive: 0.201	inactive: -0.274	inactive: 0.183	inactive: 0.098	inactive: -0.043	inactive: -0.025	inactive: 0.017	inactive: 0.115	inactive: -0.115	inactive: -0.05	inactive: 0.064	inactive: 0.041	inactive: -0.066	inactive: -0.277	inactive: -0.057	inactive: 0.013		inactive: 0.069
LRPPRC (UniProt P42704)	inactive: 0.265	inactive: 0.526	inactive: 0.002	inactive: -0.255	inactive: 0.204	inactive: -0.148	inactive: 0.185	inactive: -0.223	inactive: -0.133	inactive: -0.197	inactive: -0.18	inactive: -0.013	inactive: -0.439	inactive: -0.144	inactive: -0.891	active: -1.09	inactive: 0.059	inactive: 0		inactive: -0.252
LRRC41 (UniProt Q15345)	inactive: 0.097			inactive: -0.322		inactive: 0.241						inactive: 0.016				inactive: -0.348				
LRBA, A0A494BZW2	inactive: 0.111	inactive: 0.022	inactive: 0.283	inactive: 0.124	inactive: -0.055	inactive: 0.061	inactive: -0.105	inactive: -0.013	inactive: 0.097	inactive: 0.189	inactive: 0.02	inactive: 0.018	inactive: -0.009	inactive: 0.01	inactive: 0	inactive: -0.436	inactive: 0.041	inactive: 0.076		inactive: -0.237
LIMD2 (UniProt Q9BT23)	inactive: -0.035	inactive: -0.115		inactive: 0.015	inactive: 0.124			inactive: -0.011	inactive: 0.03	inactive: -0.154			inactive: 0.095			inactive: 0.112				inactive: -0.05
LCP2 (UniProt Q13094)	inactive: 0.013	inactive: -0.022	inactive: 0.01	inactive: -0.075	inactive: 0.088	inactive: 0.115	inactive: 0.032	inactive: -0.038	inactive: -0.124	inactive: 0.057	inactive: -0.046	inactive: 0	inactive: -0.14	inactive: -0.009	inactive: -0.129	inactive: 0.025	inactive: 0.011	inactive: 0.06		inactive: 0.025

Single values from above:
Under log2 fold change [1], LIMD2 (UniProt Q9BT23) shows inactive: -0.115
Under log2 fold change (ibrutinib), LIMD1 (UniProt Q9UGP4) shows inactive: 0.033
